The other results are listed elsewhere or left out.
Compound: c1cn2cc(-c3ccc4cn[nH]c4c3)nc(Nc3ccc(N4CCOCC4)cc3)c2n1 [entospletinib]
Assay: log2 fold change, soluble protein after heating vs DMSO (PISA); higher = thermal stabilisation; K562 cells, 10 uM, 30 min; active = over 0.2 and 3.5 SD of the protein, either way, in both replicates (recomputed)
Method in brief: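 K562 cells at 2×10^6 cells/mL were treated with 10 μM compound for 30 min. Aliquots were heated for 3 min across 48°C-58°C, pooled, and extracted in PBS with 0.5% NP-40 at 4°C; soluble protein was the supernatant after 21,000xg for 90 min. Soluble protein was quantified by TMTpro 16plex LC-MS/MS with channel sums equalised, and reported as log2 fold change in thermal stability against DMSO controls, with values from duplicates.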

Protein sequences, listed by entry. Tags and fused reporters are not part of them. Lines headed by an entry give the natural chain unless they say otherwise; changes in a name come on top.
UniProt O14979: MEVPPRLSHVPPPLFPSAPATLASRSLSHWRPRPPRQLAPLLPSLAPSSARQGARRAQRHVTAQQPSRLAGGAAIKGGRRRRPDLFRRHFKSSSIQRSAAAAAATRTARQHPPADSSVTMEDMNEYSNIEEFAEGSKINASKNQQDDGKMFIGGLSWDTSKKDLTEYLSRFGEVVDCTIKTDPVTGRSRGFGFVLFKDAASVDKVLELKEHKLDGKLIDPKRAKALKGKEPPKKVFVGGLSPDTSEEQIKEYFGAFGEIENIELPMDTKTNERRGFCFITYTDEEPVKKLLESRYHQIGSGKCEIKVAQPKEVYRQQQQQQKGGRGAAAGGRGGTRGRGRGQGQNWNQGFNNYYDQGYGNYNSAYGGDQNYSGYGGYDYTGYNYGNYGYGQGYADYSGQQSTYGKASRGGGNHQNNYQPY
UniProt Q6NVY1: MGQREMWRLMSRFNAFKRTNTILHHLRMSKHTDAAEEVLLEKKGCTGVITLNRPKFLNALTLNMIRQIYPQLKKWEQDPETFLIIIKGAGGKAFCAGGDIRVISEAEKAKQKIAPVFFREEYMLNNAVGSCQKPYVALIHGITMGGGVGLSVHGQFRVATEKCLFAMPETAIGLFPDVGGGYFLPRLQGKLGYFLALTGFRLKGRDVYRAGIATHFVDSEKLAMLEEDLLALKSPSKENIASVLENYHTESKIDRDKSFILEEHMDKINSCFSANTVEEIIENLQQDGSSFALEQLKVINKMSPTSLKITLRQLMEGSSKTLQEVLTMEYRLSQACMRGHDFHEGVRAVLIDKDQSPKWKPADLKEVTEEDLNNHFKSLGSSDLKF
UniProt Q9Y547: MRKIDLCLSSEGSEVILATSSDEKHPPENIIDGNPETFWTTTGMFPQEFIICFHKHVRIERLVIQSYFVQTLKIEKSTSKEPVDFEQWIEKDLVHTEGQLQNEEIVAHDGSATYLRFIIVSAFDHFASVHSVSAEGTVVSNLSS
UniProt P52272: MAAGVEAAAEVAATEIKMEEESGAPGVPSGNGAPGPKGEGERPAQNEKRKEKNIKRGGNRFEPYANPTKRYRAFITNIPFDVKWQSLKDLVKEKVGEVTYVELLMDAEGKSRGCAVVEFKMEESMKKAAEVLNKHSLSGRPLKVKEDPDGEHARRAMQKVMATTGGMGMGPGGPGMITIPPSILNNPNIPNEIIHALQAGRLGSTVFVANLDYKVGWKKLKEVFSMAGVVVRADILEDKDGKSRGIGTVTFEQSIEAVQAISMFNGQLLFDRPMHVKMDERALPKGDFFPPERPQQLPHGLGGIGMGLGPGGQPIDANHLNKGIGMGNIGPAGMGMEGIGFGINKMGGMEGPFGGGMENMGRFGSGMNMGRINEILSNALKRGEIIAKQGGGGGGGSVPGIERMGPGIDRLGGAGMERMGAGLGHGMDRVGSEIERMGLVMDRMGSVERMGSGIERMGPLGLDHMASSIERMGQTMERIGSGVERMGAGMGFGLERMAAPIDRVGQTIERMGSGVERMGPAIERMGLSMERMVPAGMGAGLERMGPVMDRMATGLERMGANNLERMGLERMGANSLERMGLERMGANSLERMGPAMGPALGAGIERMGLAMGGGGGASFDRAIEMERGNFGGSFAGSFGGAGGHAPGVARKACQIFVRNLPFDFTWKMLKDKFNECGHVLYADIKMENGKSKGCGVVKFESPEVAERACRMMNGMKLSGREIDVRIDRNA
UniProt Q9BX68: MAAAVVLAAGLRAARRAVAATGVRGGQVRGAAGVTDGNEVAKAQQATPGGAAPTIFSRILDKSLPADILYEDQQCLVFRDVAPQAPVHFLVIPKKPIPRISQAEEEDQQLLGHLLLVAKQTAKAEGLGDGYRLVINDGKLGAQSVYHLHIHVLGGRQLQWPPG
UniProt P13598: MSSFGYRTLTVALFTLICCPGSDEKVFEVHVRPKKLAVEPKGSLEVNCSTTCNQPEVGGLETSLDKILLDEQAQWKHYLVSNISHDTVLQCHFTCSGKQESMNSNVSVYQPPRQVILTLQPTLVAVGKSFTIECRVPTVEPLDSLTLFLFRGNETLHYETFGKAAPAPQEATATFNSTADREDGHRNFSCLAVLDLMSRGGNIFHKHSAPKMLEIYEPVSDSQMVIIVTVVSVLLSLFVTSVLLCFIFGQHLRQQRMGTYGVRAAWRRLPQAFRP
UniProt P61604, whole entry, looked up: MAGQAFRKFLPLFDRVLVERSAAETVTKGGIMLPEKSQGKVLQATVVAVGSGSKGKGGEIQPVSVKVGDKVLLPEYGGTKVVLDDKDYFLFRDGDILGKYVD
UniProt O75330: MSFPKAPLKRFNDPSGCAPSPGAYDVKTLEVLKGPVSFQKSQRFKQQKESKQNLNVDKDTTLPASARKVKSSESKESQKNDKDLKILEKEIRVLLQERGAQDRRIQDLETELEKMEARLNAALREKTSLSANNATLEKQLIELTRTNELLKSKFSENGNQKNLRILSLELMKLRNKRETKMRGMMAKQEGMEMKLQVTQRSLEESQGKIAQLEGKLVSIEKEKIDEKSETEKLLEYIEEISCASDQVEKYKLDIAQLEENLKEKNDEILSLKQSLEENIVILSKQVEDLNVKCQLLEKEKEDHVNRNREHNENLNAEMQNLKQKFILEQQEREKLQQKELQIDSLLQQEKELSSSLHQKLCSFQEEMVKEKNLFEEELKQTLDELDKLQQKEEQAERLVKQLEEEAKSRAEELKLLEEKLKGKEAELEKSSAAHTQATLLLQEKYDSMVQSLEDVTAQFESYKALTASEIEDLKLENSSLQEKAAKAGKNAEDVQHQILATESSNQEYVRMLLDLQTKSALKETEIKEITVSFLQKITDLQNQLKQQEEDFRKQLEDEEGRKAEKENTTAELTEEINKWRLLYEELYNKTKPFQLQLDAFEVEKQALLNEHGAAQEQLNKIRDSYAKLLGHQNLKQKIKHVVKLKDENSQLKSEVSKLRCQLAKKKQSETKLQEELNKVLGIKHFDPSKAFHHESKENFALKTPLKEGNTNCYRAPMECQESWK
UniProt P08397: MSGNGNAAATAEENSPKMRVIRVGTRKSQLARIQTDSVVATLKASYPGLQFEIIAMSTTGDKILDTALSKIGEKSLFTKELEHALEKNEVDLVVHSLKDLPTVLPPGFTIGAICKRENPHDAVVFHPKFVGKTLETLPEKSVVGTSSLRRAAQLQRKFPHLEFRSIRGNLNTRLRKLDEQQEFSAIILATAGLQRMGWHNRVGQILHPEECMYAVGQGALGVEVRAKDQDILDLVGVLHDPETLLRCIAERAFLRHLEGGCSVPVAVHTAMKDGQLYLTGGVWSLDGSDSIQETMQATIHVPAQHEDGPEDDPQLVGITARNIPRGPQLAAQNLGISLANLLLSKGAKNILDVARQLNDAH
UniProt P31937: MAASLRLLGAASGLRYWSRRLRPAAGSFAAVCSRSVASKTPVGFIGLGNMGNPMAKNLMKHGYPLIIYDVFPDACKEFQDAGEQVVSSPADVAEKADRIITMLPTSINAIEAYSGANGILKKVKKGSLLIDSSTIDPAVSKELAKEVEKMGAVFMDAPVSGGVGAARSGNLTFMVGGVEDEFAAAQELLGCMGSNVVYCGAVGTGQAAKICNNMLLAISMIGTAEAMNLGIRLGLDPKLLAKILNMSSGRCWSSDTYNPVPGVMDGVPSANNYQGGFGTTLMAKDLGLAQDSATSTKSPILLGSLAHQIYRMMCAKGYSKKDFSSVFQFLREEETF
UniProt P50747: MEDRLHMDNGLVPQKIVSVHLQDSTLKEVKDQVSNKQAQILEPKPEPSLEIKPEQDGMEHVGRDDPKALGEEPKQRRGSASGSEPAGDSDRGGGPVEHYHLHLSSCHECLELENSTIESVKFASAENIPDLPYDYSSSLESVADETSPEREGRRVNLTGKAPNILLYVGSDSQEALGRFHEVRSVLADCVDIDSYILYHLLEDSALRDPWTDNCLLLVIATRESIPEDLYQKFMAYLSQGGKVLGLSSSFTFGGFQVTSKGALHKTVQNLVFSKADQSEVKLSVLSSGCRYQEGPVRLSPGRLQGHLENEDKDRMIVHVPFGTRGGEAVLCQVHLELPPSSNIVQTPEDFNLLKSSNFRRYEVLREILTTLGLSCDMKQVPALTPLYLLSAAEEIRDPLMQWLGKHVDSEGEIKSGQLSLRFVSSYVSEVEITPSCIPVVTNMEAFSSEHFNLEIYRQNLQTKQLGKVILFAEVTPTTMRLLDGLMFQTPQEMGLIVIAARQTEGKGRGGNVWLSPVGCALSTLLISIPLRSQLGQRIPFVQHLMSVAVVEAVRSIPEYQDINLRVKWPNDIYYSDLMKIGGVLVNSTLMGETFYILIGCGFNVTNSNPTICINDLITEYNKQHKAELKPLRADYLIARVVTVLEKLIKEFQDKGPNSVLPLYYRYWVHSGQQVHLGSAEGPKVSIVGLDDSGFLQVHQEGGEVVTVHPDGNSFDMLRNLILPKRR
UniProt O43719: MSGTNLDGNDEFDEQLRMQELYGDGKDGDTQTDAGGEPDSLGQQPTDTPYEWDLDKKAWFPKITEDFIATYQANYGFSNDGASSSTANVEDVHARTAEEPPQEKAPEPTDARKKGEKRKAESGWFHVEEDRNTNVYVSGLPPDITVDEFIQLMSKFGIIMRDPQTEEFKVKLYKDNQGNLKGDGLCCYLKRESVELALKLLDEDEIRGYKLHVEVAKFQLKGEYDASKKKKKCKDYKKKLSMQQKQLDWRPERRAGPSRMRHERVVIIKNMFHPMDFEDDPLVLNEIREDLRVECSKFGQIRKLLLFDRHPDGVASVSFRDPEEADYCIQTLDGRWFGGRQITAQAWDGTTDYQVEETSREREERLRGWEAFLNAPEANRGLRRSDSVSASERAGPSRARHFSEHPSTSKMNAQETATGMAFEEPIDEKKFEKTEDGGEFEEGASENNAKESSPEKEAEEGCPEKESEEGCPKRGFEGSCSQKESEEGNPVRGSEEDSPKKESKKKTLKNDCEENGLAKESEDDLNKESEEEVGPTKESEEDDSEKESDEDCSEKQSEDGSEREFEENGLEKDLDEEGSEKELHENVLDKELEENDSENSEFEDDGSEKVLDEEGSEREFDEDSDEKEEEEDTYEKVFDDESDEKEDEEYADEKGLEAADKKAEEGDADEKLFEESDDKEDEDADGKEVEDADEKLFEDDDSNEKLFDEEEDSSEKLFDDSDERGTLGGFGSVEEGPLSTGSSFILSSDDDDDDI
UniProt Q58FF7, whole entry, looked up: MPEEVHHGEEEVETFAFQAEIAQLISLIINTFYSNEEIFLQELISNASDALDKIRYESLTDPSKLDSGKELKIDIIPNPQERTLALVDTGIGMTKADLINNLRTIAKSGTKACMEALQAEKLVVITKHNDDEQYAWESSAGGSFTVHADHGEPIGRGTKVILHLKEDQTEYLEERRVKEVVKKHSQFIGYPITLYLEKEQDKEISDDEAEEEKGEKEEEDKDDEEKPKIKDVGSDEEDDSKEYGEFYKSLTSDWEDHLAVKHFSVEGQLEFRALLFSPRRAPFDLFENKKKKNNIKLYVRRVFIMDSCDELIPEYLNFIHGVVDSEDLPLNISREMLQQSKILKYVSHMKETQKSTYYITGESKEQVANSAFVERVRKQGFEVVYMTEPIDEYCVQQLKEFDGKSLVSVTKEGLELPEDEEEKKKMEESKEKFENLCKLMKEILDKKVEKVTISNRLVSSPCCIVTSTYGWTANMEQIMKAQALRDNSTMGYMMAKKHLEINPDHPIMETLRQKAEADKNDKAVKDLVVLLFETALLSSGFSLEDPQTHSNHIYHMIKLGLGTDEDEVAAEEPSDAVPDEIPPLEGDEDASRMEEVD
UniProt P14625, whole entry, looked up: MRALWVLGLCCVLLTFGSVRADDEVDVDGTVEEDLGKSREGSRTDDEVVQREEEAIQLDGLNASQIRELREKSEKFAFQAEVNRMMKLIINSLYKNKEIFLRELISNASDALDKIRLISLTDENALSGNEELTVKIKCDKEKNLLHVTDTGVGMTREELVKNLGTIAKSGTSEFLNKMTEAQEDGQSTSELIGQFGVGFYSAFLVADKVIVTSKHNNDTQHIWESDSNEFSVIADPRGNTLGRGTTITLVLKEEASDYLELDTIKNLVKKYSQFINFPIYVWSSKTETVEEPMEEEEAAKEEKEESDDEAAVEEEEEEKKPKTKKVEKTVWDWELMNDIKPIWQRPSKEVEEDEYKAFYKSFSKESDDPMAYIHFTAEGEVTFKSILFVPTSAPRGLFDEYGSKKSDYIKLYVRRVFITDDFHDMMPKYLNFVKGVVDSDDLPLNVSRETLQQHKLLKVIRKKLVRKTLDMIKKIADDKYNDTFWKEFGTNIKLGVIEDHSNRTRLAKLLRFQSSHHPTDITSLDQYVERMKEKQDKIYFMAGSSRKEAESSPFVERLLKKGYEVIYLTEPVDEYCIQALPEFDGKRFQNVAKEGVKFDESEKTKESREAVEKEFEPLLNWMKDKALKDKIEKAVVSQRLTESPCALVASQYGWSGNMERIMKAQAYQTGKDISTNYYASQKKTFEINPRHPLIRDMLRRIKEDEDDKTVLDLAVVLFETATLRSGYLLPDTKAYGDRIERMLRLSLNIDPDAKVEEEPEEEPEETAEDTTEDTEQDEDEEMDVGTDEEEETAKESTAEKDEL

log2 fold change, inactive:
HSPA9 (UniProt P38646) -0.02, HNRNPU (UniProt Q00839) -0.039, HNRNPDL (UniProt O14979) 0.102, HSPA1A (UniProt P0DMV8) 0.061, HIBCH (UniProt Q6NVY1) 0.016, HSPB11 (UniProt Q9Y547) -0.002, HNRNPM (UniProt P52272) 0.062, HOXB9 (UniProt P17482) -0.028, HINT2 (UniProt Q9BX68) 0.08, ICAM2 (UniProt P13598) -0.008, HOOK2 (UniProt Q96ED9) -0.123, HIF1AN (UniProt Q9NWT6) 0.05, HSD17B10 (UniProt Q99714) -0.105, HTRA2 (UniProt O43464) -0.003, HSPA1L (UniProt P34931) 0.05, HSD17B11 (UniProt Q8NBQ5) -0.061, HMGXB4 (UniProt Q9UGU5) -0.207, IARS2 (UniProt Q9NSE4) -0.005, HNRNPH3 (UniProt P31942) -0.02, HSPE1 (UniProt P61604) -0.001, HMMR isoform 3 (UniProt O75330) 0.053, HNRNPLL (UniProt Q8WVV9) 0.083, HMBS (UniProt P08397) 0.006, HNRNPA3 (UniProt P51991) 0.004, HIBADH (UniProt P31937) 0.024, HLCS (UniProt P50747) 0.042, HSPA6 (UniProt P17066) 0.025, HTATSF1 (UniProt O43719) 0, HSPD1 (UniProt P10809) 0.003, HUS1 (UniProt O60921) -0.006, HNRNPD (UniProt Q14103) 0.069, HSP90AB3P (UniProt Q58FF7) 0.016, HMGCLL1 (UniProt Q8TB92) -0.043, HOOK1 (UniProt Q9UJC3) 0.138, HSP90B1 (UniProt P14625) -0.037

From the supplement of paper PMC10849652
